From PubChem BioAssay record AID1224904 (Broad Institute, 2016).

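293T-iDUX4 dual-reporter cells; luminescence of the tet-on Italica luciferase control is read after 24 h. The test concentration is not given here. Percent change in the Italica control signal; more negative values mean stronger inhibition, which points to nonspecific, tet-on or cytotoxic effects.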

Values are in %. Common to all entries: measured here: Italica tet-on control reporter. This is a side read-out of the assay, for part of the compounds, not drawn at random.

compound,activity change (%)
CN(C)C(=O)c1cc2c(c(-c3cccc(C4=CCCCC4)c3)n1)[C@H](CCO)N(S(C)(=O)=O)C2,-0.4277
C[C@@H]1CCCCO[C@@H](CN(C)C(=O)NC2CCCCC2)[C@H](C)CN([C@@H](C)CO)C(=O)c2cc(NC(=O)Cc3ccccc3)ccc2O1,-27.68
N#C[C@@H]1[C@H](c2ccccc2C2=CCCCC2)[C@@H](CO)N1C(=O)Cc1ccncc1,0.4509
O=C(CC1CC1)N1[C@H](CO)[C@@H](c2ccccc2)C12CN(Cc1ccccc1F)C2,-13.65
COc1cccc(C#Cc2ccc([C@H]3[C@H]4CN(C(=O)C5CC5)CC(=O)N4[C@H]3CO)cc2)c1,-21.54
N#C[C@H]1[C@@H](c2ccccc2/C=C/c2ccccc2)[C@@H](CO)N1S(=O)(=O)c1ccccc1,-42.6
Cc1ccc(S(=O)(=O)N2C[C@@H]3N[C@H](C2)[C@@H]3c2ccc(-c3cccc(C)c3)cc2)cc1,-63.66
COCC(=O)N1CC2(CN(Cc3ccccc3Cl)C2)c2c([nH]c3cc(OC)ccc23)[C@@H]1CO,0.9226
O=C(C[C@@H]1CC[C@H]2[C@@H](COC[C@H](O)CN2Cc2ccc(Oc3ccccc3)cc2)O1)N1CCN(c2ccccc2)CC1,-41.3
O=C(CCN1CCCCC1)N[C@@H]1CC[C@@H](CC(=O)N2CCC(Cc3ccccc3)CC2)O[C@H]1CO,5.861
Cc1ccccc1-c1ccc(C2[C@@H]3CN(S(=O)(=O)Cc4ccccc4)C[C@H]2N3)cc1 (some centres undefined),-7.508
CC(C)NC(=O)N1[C@@H]2Cn3c(ccc(-c4cccc(C(=O)N(C)C)c4)c3=O)[C@H]1[C@@H](C(=O)O)[C@@H]2CO,11.01
COc1ccc2c3c(n(C)c2c1)[C@@H](CO)N(Cc1ccc2c(c1)OCO2)CC31CCN(C)CC1,-9.656
O=C(C[C@@H]1CC[C@H]2[C@@H](COC[C@H](O)CN2Cc2cccc(-c3ccncc3)c2)O1)N1CCN(c2ccccc2)CC1,-18.66
O=C(c1ccc2c(c1)OCO2)N1CC(=O)N2[C@H](CO)[C@H](c3ccc(C#Cc4ccccc4)cc3)[C@@H]2C1,-12.93
C(=C\c1ccc(C2[C@@H]3CN(Cc4cccnc4)C[C@H]2N3)cc1)/c1ccccc1 (some centres undefined),-46.24
COc1ccc2c3c([nH]c2c1)[C@H](CO)N(C(=O)Nc1ccc(F)cc1)CC31CN(Cc2ccccc2OC)C1,-91.87
CCCNC(=O)N1[C@H](C#N)[C@H](c2ccccc2C2=CCCCC2)[C@@H]1CO,-5.38
COc1cccc(CN2CC3(CCN(C)CC3)c3c([nH]c4cc(OC)ccc34)[C@H]2CO)c1,-8.592
CC(C)NC(=O)N1CCCCN2[C@H](CO)[C@@H](c3ccc(C#Cc4ccccc4F)cc3)[C@H]2C1,-15.59
C[C@H](CO)N1C[C@H](C)[C@@H](CN(C)C(=O)[C@H](C)c2ccccc2)OCc2ccccc2-c2c(n(C)c3ccccc23)C1=O,-66.06
Cc1ccccc1-c1ccc([C@H]2[C@H]3CN(S(=O)(=O)Cc4ccccc4)CCCCN3[C@H]2CO)cc1,-23.04
COc1ccc2c3c([nH]c2c1)[C@H](CO)N(CC1CC1)CC31CN(C(=O)c2cccc(F)c2)C1,-19.25
CCCNC(=O)N1CC2(C1)[C@H](c1ccccc1)[C@H](CO)N2C(=O)c1cccnc1,-5.069
COc1ccc2c3c([nH]c2c1)[C@H](CO)N(Cc1ccccc1)CC31CCN(S(=O)(=O)c2ccc(C)cc2)CC1,-21.73
Cc1cccc(S(=O)(=O)N2CCCCN3[C@@H](CO)[C@@H](c4ccc(C#C[C@H](C)O)cc4)[C@@H]3C2)c1,-52.34
CO[C@@H]1CN(C)C(=O)c2ccc(NC(=O)C3CCCCC3)cc2OC[C@@H](C)N(C(=O)Nc2ccc(C(F)(F)F)cc2)C[C@H]1C,-5.875
O=S(=O)(Cc1ccccc1)N1[C@H](CO)[C@@H](c2ccccc2)C12CN(CCC(F)(F)F)C2,-5.133
CN1c2ccc(-c3ccc(C#N)cc3)cc2[C@@H]2[C@@H](CCN2C(=O)NC2CCCCC2)[C@H]1CO,-42.69
O=C(C[C@@H]1CC[C@@H]2[C@H](COC[C@@H](O)CN2Cc2cccc(Cl)c2)O1)Nc1nccs1,-7.405
Cc1ccccc1S(=O)(=O)N1CC[C@@H]2[C@H](CO)Nc3ccc(-c4ccccc4)cc3[C@@H]21,-14.52
COc1ccc2c3c([nH]c2c1)[C@@H](CO)N(Cc1ccc(F)cc1)CC31CN(Cc2ccccn2)C1,-3.168
C[C@H]1CN([C@@H](C)CO)C(=O)c2c(c3ccccc3n2C)-c2ccccc2CO[C@H]1CN(C)Cc1cccc2c1OCCCO2,-1.865
O=C(C[C@@H]1CC[C@@H]2[C@H](COC[C@H](O)CN2CC2CCCCC2)O1)NCc1ccc(Cl)cc1,-32.82
O=C(NCC1CC1)[C@H]1N[C@H]2c3ccc(-c4ccccc4F)c(=O)n3C[C@H]2[C@@H]1CO,6.365
OC[C@H]1[C@H](c2ccc(-c3cccc(F)c3)cc2)[C@H]2CN(CCC(F)(F)F)CCCCN21,3.278
COc1ccccc1NC(=O)N[C@H]1CC[C@H](CCNS(=O)(=O)c2ccc(Cl)cc2)O[C@H]1CO,3.147
O=C(C[C@@H]1CC[C@H](NC(=O)Nc2ccc(C(F)(F)F)cc2)[C@H](CO)O1)NCc1cccc(F)c1,-23.37
N#C[C@H]1[C@H](c2ccccc2C2=CCCC2)[C@@H](CO)N1C(=O)Cc1ccncc1,-8.205
O=C(Nc1cc(F)ccc1F)N1CCCCN2[C@H](CO)[C@H](c3ccc(-c4cccnc4)cc3)[C@H]2C1,4.084
COc1cccc(S(=O)(=O)Nc2ccc3c(c2)[C@@H]2C[C@H](CC(=O)NCCc4ccccc4)O[C@@H](CO)[C@@H]2O3)c1,-10.19
C/C=C/c1ccc([C@@H]2[C@H](CO)N(C(=O)C3CCCC3)C23CN(S(C)(=O)=O)C3)cc1,-2.533
O=C(C1CCC1)N1[C@@H](CO)[C@@H](c2ccccc2)C12CN(Cc1ccccc1)C2,-10.41

4 of the entries, repeated:

CN(C)C(=O)c1cc2c(c(-c3cccc(C4=CCCCC4)c3)n1)[C@H](CCO)N(S(C)(=O)=O)C2 read activity change -0.4277%.
COc1cccc(C#Cc2ccc([C@H]3[C@H]4CN(C(=O)C5CC5)CC(=O)N4[C@H]3CO)cc2)c1 read activity change -21.54%.
O=S(=O)(Cc1ccccc1)N1[C@H](CO)[C@@H](c2ccccc2)C12CN(CCC(F)(F)F)C2 read activity change -5.133%.
CC(C)NC(=O)N1CCCCN2[C@H](CO)[C@@H](c3ccc(C#Cc4ccccc4F)cc3)[C@H]2C1 read activity change -15.59%.